PubChem BioAssay AID1259308, NCATS – 2017
Assay: 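Genes whose loss raises luciferase production in HEK293 cells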 (primary screen). Cells: human HEK293 embryonic kidney cells stably expressing firefly luciferase (HEK-CMV-Luc2-Hygro). Knock-down reagent: single siRNA against human genes, 0.8 pmol siRNA per well. Timing: 72 h. Read-out: 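Reporter luminescence and viable-cell signal on separate replicate plates, given as percent of non-targeting control and median/MAD z-scores, plus per-cell luciferase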. Reading the numbers: total luciferase, z-score and total luciferase, % of control: higher = more reporter protein produced; luciferase per cell, z-score: higher = more reporter output per viable cell. Rule for the call: 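An siRNA counts as active if its total luciferase robust z-score exceeds 3; genes with two or more such siRNAs out of three were retested with fresh siRNAs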. Meaning of the calls: active = raised luciferase; inactive = no rise.
The whole screen tested about 59,000 reagents; shown is an unselected part. About 1,510 of them (2.6%) count as active. 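Calls use total luciferase alone and ignore viability, so some active siRNAs may act by altering cell number.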 The numbers tell different reagents against one gene apart. Not all columns of the deposit are shown.

The first 6 entries, ahead of the listing:
no.	target gene	reagent no.	total luciferase, z-score	total luciferase, % of control	luciferase per cell, z-score	Outcome
1	RSPH4A (radial spoke head component 4A)	1	-0.979	62.4	-1.25	inactive
2	RSPH4A (radial spoke head component 4A)	2	-1.8	46.1	-0.224	inactive
3	RSPH4A (radial spoke head component 4A)	3	-0.486	72.2	0.403	inactive
4	ZNF597 (zinc finger protein 597)	1	-0.6	70	-0.38	inactive
5	ZNF597 (zinc finger protein 597)	2	-0.733	67.3	-0.931	inactive
6	ZNF597 (zinc finger protein 597)	3	0.0335	82.6	-0.0562	inactive

Main list, from the start:
no.	target gene	reagent no.	total luciferase, z-score	total luciferase, % of control	luciferase per cell, z-score	Outcome
1	RSPH4A (radial spoke head component 4A)	1	-0.979	62.4	-1.25	inactive
2	RSPH4A (radial spoke head component 4A)	2	-1.8	46.1	-0.224	inactive
3	RSPH4A (radial spoke head component 4A)	3	-0.486	72.2	0.403	inactive
4	ZNF597 (zinc finger protein 597)	1	-0.6	70	-0.38	inactive
5	ZNF597 (zinc finger protein 597)	2	-0.733	67.3	-0.931	inactive
6	ZNF597 (zinc finger protein 597)	3	0.0335	82.6	-0.0562	inactive
7	STRIP2 (striatin interacting protein 2)	1	0.341	88.7	0.207	inactive
8	STRIP2 (striatin interacting protein 2)	2	-0.495	72	-0.285	inactive
9	STRIP2 (striatin interacting protein 2)	3	-0.122	79.5	-0.467	inactive
10	RALGDS (ral guanine nucleotide dissociation stimulator)	1	-0.0772	80.4	0.773	inactive
11	RALGDS (ral guanine nucleotide dissociation stimulator)	2	0.277	87.4	-0.518	inactive
12	RALGDS (ral guanine nucleotide dissociation stimulator)	3	-0.486	72.2	0.482	inactive
13	MEIS2 (Meis homeobox 2)	1	0.325	88.3	0.851	inactive
14	MEIS2 (Meis homeobox 2)	2	-0.107	79.8	-0.281	inactive
15	MEIS2 (Meis homeobox 2)	3	-0.0414	81.1	-0.0977	inactive
16	MIR550A3HG (MIR550A3 host gene)	1	0.739	96.6	0.922	inactive
17	MIR550A3HG (MIR550A3 host gene)	2	2.5	132	1.42	inactive
18	MIR550A3HG (MIR550A3 host gene)	3	-0.202	77.9	-1.2	inactive
19	KIAA1958	1	1.92	120	2.62	inactive
20	KIAA1958	2	0.874	99.3	1.09	inactive
21	KIAA1958	3	0.255	87	0.573	inactive
22	SPACA5B (sperm acrosome associated 5B)	1	-0.763	66.7	-0.5	inactive
23	SPACA5B (sperm acrosome associated 5B)	2	0.88	99.4	0.73	inactive
24	SPACA5B (sperm acrosome associated 5B)	3	0.33	88.5	0.4	inactive
25	PAQR3 (progestin and adipoQ receptor family member 3)	1	-0.627	69.4	-0.37	inactive
26	PAQR3 (progestin and adipoQ receptor family member 3)	2	-0.645	69.1	-0.305	inactive
27	PAQR3 (progestin and adipoQ receptor family member 3)	3	-0.301	75.9	-0.0841	inactive
28	LINC00938 (long independently transcribed non-coding RNA 938)	1	3.03	142	2.35	active
29	LINC00938 (long independently transcribed non-coding RNA 938)	2	-1.17	58.7	-0.631	inactive
30	LINC00938 (long independently transcribed non-coding RNA 938)	3	-0.189	78.1	-0.745	inactive
31	KCNK4 (potassium two pore domain channel subfamily K member 4)	1	0.282	87.5	0.236	inactive
32	KCNK4 (potassium two pore domain channel subfamily K member 4)	2	0.603	93.9	0.578	inactive
33	KCNK4 (potassium two pore domain channel subfamily K member 4)	3	0.000311	81.9	-0.058	inactive
34	SGK1 (serum/glucocorticoid regulated kinase 1)	1	1.88	119	2.81	inactive
35	SGK1 (serum/glucocorticoid regulated kinase 1)	2	-0.61	69.8	-0.107	inactive
36	SGK1 (serum/glucocorticoid regulated kinase 1)	3	-0.707	67.8	-0.734	inactive
37	SLC15A2	1	0.0918	83.7	-0.387	inactive
38	SLC15A2	2	0.0565	83	0.255	inactive
39	SLC15A2	3	-0.682	68.3	-1.2	inactive
40	C4BPA (complement component 4 binding protein alpha)	1	-0.302	75.9	-0.263	inactive
41	C4BPA (complement component 4 binding protein alpha)	2	-0.817	65.6	-0.868	inactive
42	C4BPA (complement component 4 binding protein alpha)	3	0.965	101	0.714	inactive
43	ABL2 (ABL proto-oncogene 2, non-receptor tyrosine kinase)	1	-0.0354	81.2	0.36	inactive
44	ABL2 (ABL proto-oncogene 2, non-receptor tyrosine kinase)	2	-0.2	77.9	-0.457	inactive
45	ABL2 (ABL proto-oncogene 2, non-receptor tyrosine kinase)	3	1.48	111	1.12	inactive
46	UNC45A (unc-45 myosin chaperone A)	1	3.07	143	1.56	active
47	UNC45A (unc-45 myosin chaperone A)	2	2.56	133	0.794	inactive
48	UNC45A (unc-45 myosin chaperone A)	3	-0.507	71.8	-0.563	inactive
49	DENND11 (DENN domain containing 11)	1	-0.223	77.5	-0.988	inactive
50	DENND11 (DENN domain containing 11)	2	-0.749	67	-0.56	inactive
51	DENND11 (DENN domain containing 11)	3	0.199	85.8	-0.0738	inactive
52	USP41P (ubiquitin specific peptidase 41, pseudogene)	1	-0.23	77.3	-0.262	inactive
53	USP41P (ubiquitin specific peptidase 41, pseudogene)	2	0.166	85.2	0.474	inactive
54	USP41P (ubiquitin specific peptidase 41, pseudogene)	3	1.09	103	0.405	inactive
55	VANGL1 (VANGL planar cell polarity protein 1)	1	0.924	100	2.31	inactive
56	VANGL1 (VANGL planar cell polarity protein 1)	2	-0.169	78.5	-0.38	inactive
57	VANGL1 (VANGL planar cell polarity protein 1)	3	-1.14	59.3	-1.55	inactive
